This continues a long series; more values of the same kind are listed elsewhere.
Test system: EpidermFT™ Skin Model (EFT-400) full thickness skin cultures
Assay: Affymetrix GeneChip HG U133 Plus 2.0 microarray global gene expression, agent-exposed vs untreated skin cultures
Type: cell-based, human
Conditions: Salicin 0.5%, 24 hr
[1] = 44790_s_at C13orf18 /// LOC728970
[2] = 218280_x_at HIST2H2AA3 /// HIST2H2AA4

OCc1ccccc1O[C@@H]1O[C@H](CO)[C@@H](O)[C@H](O)[C@H]1O [Salicin, 2-(Hydroxymethyl)phenyl β-D-glucospyranoside]
Direction (37226_at BNIP1): up | Fold change (37226_at BNIP1): 2.163 | Direction (40560_at TBX2): up | Fold change (40560_at TBX2): 2.044 | Direction [1]: up | Fold change [1]: 2.258 | Direction (200755_s_at CALU): up | Fold change (200755_s_at CALU): 2.052 | Direction (200790_at ODC1): up | Fold change (200790_at ODC1): 2.276 | Direction (201150_s_at TIMP3): up | Fold change (201150_s_at TIMP3): 2.058 | Direction (201289_at CYR61): up | Fold change (201289_at CYR61): 2.214 | Direction (201531_at ZFP36): up | Fold change (201531_at ZFP36): 2.225 | Direction (201772_at AZIN1): up | Fold change (201772_at AZIN1): 2.049 | Direction (202214_s_at CUL4B): up | Fold change (202214_s_at CUL4B): 2.058 | Direction (202375_at SEC24D): up | Fold change (202375_at SEC24D): 2.296 | Direction (202543_s_at GMFB): up | Fold change (202543_s_at GMFB): 2.213 | Direction (202721_s_at GFPT1): up | Fold change (202721_s_at GFPT1): 2.266 | Direction (202722_s_at GFPT1): up | Fold change (202722_s_at GFPT1): 2.26 | Direction (202784_s_at NNT): up | Fold change (202784_s_at NNT): 2.054 | Direction (202820_at AHR): up | Fold change (202820_at AHR): 2.272 | Direction (202888_s_at ANPEP): up | Fold change (202888_s_at ANPEP): 2.201 | Direction (203294_s_at LMAN1): up | Fold change (203294_s_at LMAN1): 2.05 | Direction (203424_s_at IGFBP5): up | Fold change (203424_s_at IGFBP5): 2.27 | Direction (203425_s_at IGFBP5): up | Fold change (203425_s_at IGFBP5): 2.176 | Direction (203475_at CYP19A1): up | Fold change (203475_at CYP19A1): 2.29 | Direction (203498_at RCAN2): up | Fold change (203498_at RCAN2): 2.281 | Direction (203574_at NFIL3): up | Fold change (203574_at NFIL3): 2.169 | Direction (203810_at DNAJB4): up | Fold change (203810_at DNAJB4): 2.053 | Direction (203837_at MAP3K5): up | Fold change (203837_at MAP3K5): 2.262 | Direction (203857_s_at PDIA5): up | Fold change (203857_s_at PDIA5): 2.204 | Direction (203927_at NFKBIE): up | Fold change (203927_at NFKBIE): 2.057 | Direction (203980_at FABP4): up | Fold change (203980_at FABP4): 2.251 | Direction (204089_x_at MAP3K4): up | Fold change (204089_x_at MAP3K4): 2.283 | Direction (204151_x_at AKR1C1): up | Fold change (204151_x_at AKR1C1): 2.205 | Direction (204556_s_at DZIP1): up | Fold change (204556_s_at DZIP1): 2.173 | Direction (204595_s_at STC1): up | Fold change (204595_s_at STC1): 2.234 | Direction (204597_x_at STC1): up | Fold change (204597_x_at STC1): 2.234 | Direction (204720_s_at DNAJC6): up | Fold change (204720_s_at DNAJC6): 2.275 | Direction (204984_at GPC4): up | Fold change (204984_at GPC4): 2.289 | Direction (205138_s_at UST): up | Fold change (205138_s_at UST): 2.241 | Direction (205290_s_at BMP2): up | Fold change (205290_s_at BMP2): 2.065 | Direction (205495_s_at GNLY): up | Fold change (205495_s_at GNLY): 2.202 | Direction (205659_at HDAC9): up | Fold change (205659_at HDAC9): 2.071 | Direction (205991_s_at PRRX1): up | Fold change (205991_s_at PRRX1): 2.165 | Direction (206249_at MAP3K13): up | Fold change (206249_at MAP3K13): 2.252 | Direction (206445_s_at PRMT1): up | Fold change (206445_s_at PRMT1): 2.175 | Direction (207345_at FST): up | Fold change (207345_at FST): 2.17 | Direction (207829_s_at BNIP1): up | Fold change (207829_s_at BNIP1): 2.164 | Direction (208510_s_at PPARG): up | Fold change (208510_s_at PPARG): 2.182 | Direction (209204_at LMO4): up | Fold change (209204_at LMO4): 2.247 | Direction (209277_at TFPI2): up | Fold change (209277_at TFPI2): 2.243 | Direction (209324_s_at RGS16): up | Fold change (209324_s_at RGS16): 2.064 | Direction (209545_s_at RIPK2): up | Fold change (209545_s_at RIPK2): 2.253 | Direction (209699_x_at AKR1C2): up | Fold change (209699_x_at AKR1C2): 2.064 | Direction (209708_at MOXD1): up | Fold change (209708_at MOXD1): 2.205 | Direction (209781_s_at KHDRBS3): up | Fold change (209781_s_at KHDRBS3): 2.199 | Direction (209850_s_at CDC42EP2): up | Fold change (209850_s_at CDC42EP2): 2.161 | Direction (210191_s_at PHTF1): up | Fold change (210191_s_at PHTF1): 2.2 | Direction (210198_s_at PLP1): up | Fold change (210198_s_at PLP1): 2.052 | Direction (210243_s_at B4GALT3): up | Fold change (210243_s_at B4GALT3): 2.049 | Direction (210257_x_at CUL4B): up | Fold change (210257_x_at CUL4B): 2.231 | Direction (210275_s_at ZFAND5): up | Fold change (210275_s_at ZFAND5): 2.201 | Direction (210350_x_at ING1): up | Fold change (210350_x_at ING1): 2.174 | Direction (210510_s_at NRP1): up | Fold change (210510_s_at NRP1): 2.238 | Direction (210845_s_at PLAUR): up | Fold change (210845_s_at PLAUR): 2.249 | Direction (210875_s_at ZEB1): up | Fold change (210875_s_at ZEB1): 2.233 | Direction (210896_s_at ASPH): up | Fold change (210896_s_at ASPH): 2.225 | Direction (211952_at IPO5): up | Fold change (211952_at IPO5): 2.044 | Direction (212110_at SLC39A14): up | Fold change (212110_at SLC39A14): 2.046 | Direction (212120_at RHOQ): up | Fold change (212120_at RHOQ): 2.061 | Direction (212454_x_at HNRPDL): up | Fold change (212454_x_at HNRPDL): 2.054 | Direction (212585_at OSBPL8): up | Fold change (212585_at OSBPL8): 2.25 | Direction (212915_at PDZRN3): up | Fold change (212915_at PDZRN3): 2.236 | Direction (213029_at NFIB): up | Fold change (213029_at NFIB): 2.235 | Direction (213036_x_at ATP2A3): up | Fold change (213036_x_at ATP2A3): 2.192 | Direction (213113_s_at SLC43A3): up | Fold change (213113_s_at SLC43A3): 2.211 | Direction (213159_at PCNX): up | Fold change (213159_at PCNX): 2.265 | Direction (213173_at PCNX): up | Fold change (213173_at PCNX): 2.071 | Direction (213309_at PLCL2): up | Fold change (213309_at PLCL2): 2.241 | Direction (213338_at TMEM158): up | Fold change (213338_at TMEM158): 2.205 | Direction (213417_at TBX2): up | Fold change (213417_at TBX2): 2.229 | Direction (213425_at WNT5A): up | Fold change (213425_at WNT5A): 2.279 | Direction (213836_s_at WIPI1): up | Fold change (213836_s_at WIPI1): 2.256 | Direction (213988_s_at SAT1): up | Fold change (213988_s_at SAT1): 2.174 | Direction (214061_at WDR67): up | Fold change (214061_at WDR67): 2.176 | Direction (214657_s_at NCRNA00084): up | Fold change (214657_s_at NCRNA00084): 2.174 | Direction (215058_at DENND5B): up | Fold change (215058_at DENND5B): 2.169 | Direction (216218_s_at PLCL2): up | Fold change (216218_s_at PLCL2): 2.201 | Direction (217741_s_at ZFAND5): up | Fold change (217741_s_at ZFAND5): 2.16 | Direction (218193_s_at GOLT1B): up | Fold change (218193_s_at GOLT1B): 2.18 | Direction [2]: up | Fold change [2]: 2.275 | Direction (218401_s_at ZNF281): up | Fold change (218401_s_at ZNF281): 2.218 | Direction (218513_at C4orf43): up | Fold change (218513_at C4orf43): 2.047 | Direction (218541_s_at C8orf4): up

From US20120034613A1, “Apparatus and Method for Testing Relationships Between Gene Expression and Physical Appearance of Skin” (NSE Products, Inc., priority 2010, published 2012)
